The values that follow come from PubChem BioAssay AID248 (DTP/NCI, 2004).

The test system of this assay is L1210 leukemia ip in BDF1 mice, survival T/C. The assay can be described thus: NCI In Vivo Anticancer Drug Screen. Data for tumor model L1210 Leukemia (intraperitoneal) in B6D2F1 (BDF1) mice. The note with it: T/C endpoint: mean survival time, higher T/C = longer survival.
The mark [1] stands for this setting: dose: 200.0 mg/kg/injection, schedule: Q01DX009 (ip), vehicle: Klucel (hydroxypropylcellulose) (HPC).
Where [2] appears, read: dose: 400.0 mg/kg/injection, schedule: Q01DX009 (ip), vehicle: Klucel (hydroxypropylcellulose) (HPC).
The mark [3] stands for this setting: dose: 400.0 mg/kg/injection, schedule: Q01DX001 (ip), vehicle: carboxymethylcellulose (CMC).
Setting [4] is: dose: 100.0 mg/kg/injection, schedule: Q01DX009 (ip), vehicle: saline.
[5] abbreviates: dose: 200.0 mg/kg/injection, schedule: Q04DX003 (ip), vehicle: saline.
Setting [6] is: dose: 200.0 mg/kg/injection, schedule: Q01DX009 (ip), vehicle: saline.
Where [7] appears, read: dose: 400.0 mg/kg/injection, schedule: Q01DX001 (ip), vehicle: saline.
Where [8] appears, read: dose: 400.0 mg/kg/injection, schedule: Q01DX009 (ip), vehicle: saline.
The mark [9] stands for this setting: dose: 100.0 mg/kg/injection, schedule: Q01DX009 (ip), vehicle: saline with Tween-80.
Setting [10] is: dose: 400.0 mg/kg/injection, schedule: Q04DX003 (ip), vehicle: Klucel (hydroxypropylcellulose) (HPC).

The list shows only some results of the screen, not a fair sample: it gathers tests that were run many times, whatever their T/C, doses with no T/C, and many T/C values between a quarter and a half above the control. Further doses and runs are listed elsewhere. T/C gives the treated animals as a percentage of the vehicle group. Some doses have a count of surviving animals in place of a T/C: the source holds a T/C of zero for them, seemingly a mark for toxic or unscored doses. Some survivor counts are full or nearly so, which does not show that the dose was tolerated: survival well below the control is almost never listed, so the zero probably covers shortened survival too. Counts of survivors are from the toxicity check (mostly the fifth day) where no day follows; animals may have died later. Schedule codes are those of the source, taken here to give the interval after Q, in days (D) or hours (H), and the number of doses after X. Some schedule codes hold Z or #, which are not explained here. For survival time, the PubChem record calls one and a half times the control and up active, and a quarter to a half above the control has no call in these data; cut-offs in other NCI protocols can differ.

As to `COC(C)CSP(SCC(C)OC)SCC(C)OC` (configuration not stated), the survivor count (dose: 100.0 mg/kg/injection, schedule: Q01DX009 (ip), vehicle: Klucel (hydroxypropylcellulose) (HPC)) is on record as 4 of 6; the survivor count under setting [1] was 1 of 6; the survivor count under setting [2] is listed as 0 of 6.

Take `O=C(O)C1C(c2ccccc2)=C(c2ccccc2)C(c2ccccc2)=C(c2ccccc2)C1C(=O)O` (configuration not stated): the survivor count is given as 0 of 4 (dose: 200.0 mg/kg/injection, schedule: Q01DX001 (ip), vehicle: carboxymethylcellulose (CMC)) and 1 of 4 under setting [3].

`OCc1ccn2c1C(O)CC2` (configuration not stated): the T/C by setting is: (dose: 66.0 mg/kg/injection, schedule: Q01DX009 (ip), vehicle: saline) 147 % of control; under setting [4], 149 % of control. Also, the survivor count is on record as 2 of 6 (dose: 225.0 mg/kg/injection, schedule: Q01DX009 (ip), vehicle: saline) and 0 of 6 (dose: 340.0 mg/kg/injection, schedule: Q01DX009 (ip), vehicle: saline).

With `OC1CC=CC=CC1`, the survivor count (dose: 300.0 mg/kg/injection, schedule: Q01DX001 (ip), vehicle: saline) is recorded as 2 of 6.

For the molecule `CC1CCCCC1C(=O)N1CCCC1` (configuration not stated), the survivor count (dose: 400.0 mg/kg/injection, schedule: Q04DX002 (ip), vehicle: saline) was 1 of 3.

In the case of `CN(C)C(=O)c1ccc[n+](Cc2ccc(Cl)c(Cl)c2)c1`, the survivor count by setting is: under setting [5], 4 of 6; (dose: 400.0 mg/kg/injection, schedule: Q04DX003 (ip), vehicle: saline) 0 of 6.

In the case of `NNC(=O)c1cccnc1`, the survivor count was 2 of 6 (dose: 200.0 mg/kg/injection, schedule: Q01DX001 (ip), vehicle: saline); 0 of 6 under setting [6]; 0 of 6 under setting [7]; 0 of 6 under setting [8].

With `OC1(C#CI)CCCCC1`, the survivor count under setting [2] is given as 6 of 6.

As for `CN1CCN(C(c2ccccc2)c2ccc(Cl)cc2)CC1` (configuration not stated), the survivor count was 0 of 6 under setting [4] and 0 of 4 under setting [5].

Take `CN(Cc1cnc2nc(N)nc(N)c2n1)c1ccc(C(=O)NC(CCC(=O)O)C(=O)O)cc1C(F)(F)F` (configuration not stated): the T/C is, setting by setting: (dose: 1.25 mg/kg/injection, schedule: Q01DX009 (ip), vehicle: sodium bicarbonate) 126 % of control; (dose: 2.5 mg/kg/injection, schedule: Q01DX009 (ip), vehicle: sodium bicarbonate) 136 % of control.

In the case of `CCOC(=O)N1C(=O)NC(=O)C1c1ccccc1` (configuration not stated), under setting [7], the survivor count is reported as 2 of 4.

Consider `Clc1nc2ccccc2nc1CI`, for which the survivor count is recorded as 2 of 6 (dose: 25.0 mg/kg/injection, schedule: Q01DX009 (ip), vehicle: Klucel (hydroxypropylcellulose) (HPC)); 0 of 6 (dose: 50.0 mg/kg/injection, schedule: Q01DX009 (ip), vehicle: saline with Tween-80); 0 of 6 under setting [9]; 0 of 6 (dose: 100.0 mg/kg/injection, schedule: Q04DX003 (ip), vehicle: Klucel (hydroxypropylcellulose) (HPC)).

As to `C[C@H](OC(=O)CCl)[C@@H](C)OC(=O)CCl`, the survivor count by setting is: (dose: 200.0 mg/kg/injection, schedule: Q01DX001 (sc), vehicle: carboxymethylcellulose (CMC)) 0 of 4; (dose: 400.0 mg/kg/injection, schedule: Q01DX001 (sc), vehicle: carboxymethylcellulose (CMC)) 0 of 4.

In the case of `c1ccc([B-](c2ccccc2)([C+]2CCCCC2)N2CCCCC2)cc1`, under “dose: 300.0 mg/kg/injection, schedule: Q01DX001 (ip), vehicle: carboxymethylcellulose (CMC)”, the survivor count is 3 of 6.

As for `NC1=Nc2ccccc2CS1`, where the note is “dose: 75.0 mg/kg/injection, schedule: Q04DX003 (ip), vehicle: saline”, the survivor count is reported as 0 of 6.

Regarding `CCCC(OC(C)=O)C(Cl)(Cl)Cl` (configuration not stated), the survivor count under setting [1] is on record as 5 of 6 and the survivor count under setting [10] is given as 1 of 6.

`CC(O)C/C=N\N=C(N)N` (configuration not stated): the survivor count is on record as 0 of 6 (dose: 30.0 mg/kg/injection, schedule: Q01DX Z (ip), vehicle: methylcellulose (MC)); 0 of 6 (dose: 60.0 mg/kg/injection, schedule: Q01DX Z (ip), vehicle: methylcellulose (MC)); 0 of 6 (dose: 120.0 mg/kg/injection, schedule: Q01DX Z (ip), vehicle: methylcellulose (MC)).

`COc1cc(OC)c(/C=C/c2c3ccccc3cc[n+]2C)c(OC)c1`: the survivor count runs as follows: (dose: 3.13 mg/kg/injection, schedule: Q01DX009 (ip), vehicle: saline with Tween-80) 0 of 6; (dose: 6.25 mg/kg/injection, schedule: Q01DX009 (ip), vehicle: saline with Tween-80) 0 of 6; under setting [9], 0 of 6; (dose: 200.0 mg/kg/injection, schedule: Q01DX009 (ip), vehicle: saline with Tween-80) 0 of 6; (dose: 400.0 mg/kg/injection, schedule: Q01DX009 (ip), vehicle: saline with Tween-80) 0 of 6.

For `CCOC(=O)/C(C(=O)c1ccccc1)=C(\OC(=O)c1ccccc1)c1ccccc1`, under setting [3], the survivor count is recorded as 4 of 4.

On to `CC(C)(C)NNC(=O)c1ccccc1`, for which the survivor count runs as follows: (dose: 150.0 mg/kg/injection, schedule: Q04DX003 (ip), vehicle: saline with Tween-80) 3 of 6; (dose: 300.0 mg/kg/injection, schedule: Q04DX003 (ip), vehicle: saline with Tween-80) 0 of 6.

For the molecule `Cc1cc2nc(CCl)[nH]c2cc1C`, under setting [7], the survivor count is given as 0 of 4.

Take `Oc1cccc(-c2cccc(OCCCCCCCCCCBr)c2)c1`: the survivor count was 3 of 6 (dose: 50.0 mg/kg/injection, schedule: Q01DX009 (ip), vehicle: DMSO); 0 of 6 (dose: 100.0 mg/kg/injection, schedule: Q01DX009 (ip), vehicle: DMSO); 1 of 6 (dose: 200.0 mg/kg/injection, schedule: Q01DX009 (ip), vehicle: DMSO); 0 of 6 (dose: 400.0 mg/kg/injection, schedule: Q01DX009 (ip), vehicle: DMSO); 4 of 6 (dose: 400.0 mg/kg/injection, schedule: Q04DX003 (ip), vehicle: DMSO).

As to `C[As](C)[Se]C1OC(CO)C(O)C(O)C1O` (configuration not stated), the survivor count was 6 of 6 (dose: 100.0 mg/kg/injection, schedule: Q04DX003 (ip), vehicle: saline with Tween-80); 1 of 6 (dose: 200.0 mg/kg/injection, schedule: Q04DX003 (ip), vehicle: saline with Tween-80); 0 of 6 (dose: 400.0 mg/kg/injection, schedule: Q04DX003 (ip), vehicle: saline with Tween-80).

Regarding `O=C(O)C1(O)C(Cl)(Cl)C(Cl)=C(Cl)C1(Cl)Cl`, the survivor count is 3 of 6 (dose: 200.0 mg/kg/injection, schedule: Q01DX009 (ip), vehicle: saline sonified); 1 of 6 (dose: 200.0 mg/kg/injection, schedule: Q04DX003 (ip), vehicle: Klucel (hydroxypropylcellulose) (HPC)); 0 of 6 under setting [10].

Turning to `CC1(C)N=C(N)N=C(N)N1c1ccc(OCCCOc2ccc(S(=O)(=O)F)cc2)c(Cl)c1`, the survivor count is, setting by setting: (dose: 50.0 mg/kg/injection, schedule: Q01DX009 (ip), vehicle: saline) 0 of 6; under setting [4], 0 of 6; under setting [6], 0 of 6; under setting [8], 0 of 6.

Turning to `CC1CCCCN1Cc1ccccc1CC(=O)c1ccccc1` (configuration not stated), the survivor count (dose: 400.0 mg/kg/injection, schedule: Q04DX002 (ip), vehicle: Klucel (hydroxypropylcellulose) (HPC)) was 0 of 3.

As for `C=C1C(=O)OC2CC(C)CCC/C(CO)=C/C(OC(=O)/C(=C/CO)CO)C12` (configuration not stated), where the note is “dose: 30.0 mg/kg/injection, schedule: Q01DX001 (ip), vehicle: acetone”, the survivor count is given as 1 of 6.
